Laboratory results as given in paper PMC11030540.

By UniProt entry, the sequences of proteins in these tests, tags left out.
UniProt Q92754: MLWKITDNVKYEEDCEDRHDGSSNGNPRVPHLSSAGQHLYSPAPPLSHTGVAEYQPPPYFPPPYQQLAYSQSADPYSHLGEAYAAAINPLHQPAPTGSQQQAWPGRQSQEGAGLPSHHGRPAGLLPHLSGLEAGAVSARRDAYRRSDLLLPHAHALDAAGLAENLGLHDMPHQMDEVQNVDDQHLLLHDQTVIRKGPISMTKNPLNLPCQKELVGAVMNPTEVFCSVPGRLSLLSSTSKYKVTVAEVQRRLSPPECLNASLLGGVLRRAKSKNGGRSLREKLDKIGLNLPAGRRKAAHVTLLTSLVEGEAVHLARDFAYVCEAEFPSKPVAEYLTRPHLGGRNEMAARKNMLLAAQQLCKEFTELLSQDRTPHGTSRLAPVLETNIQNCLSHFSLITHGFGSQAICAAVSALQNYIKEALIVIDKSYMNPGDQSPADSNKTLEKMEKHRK
UniProt Q15393: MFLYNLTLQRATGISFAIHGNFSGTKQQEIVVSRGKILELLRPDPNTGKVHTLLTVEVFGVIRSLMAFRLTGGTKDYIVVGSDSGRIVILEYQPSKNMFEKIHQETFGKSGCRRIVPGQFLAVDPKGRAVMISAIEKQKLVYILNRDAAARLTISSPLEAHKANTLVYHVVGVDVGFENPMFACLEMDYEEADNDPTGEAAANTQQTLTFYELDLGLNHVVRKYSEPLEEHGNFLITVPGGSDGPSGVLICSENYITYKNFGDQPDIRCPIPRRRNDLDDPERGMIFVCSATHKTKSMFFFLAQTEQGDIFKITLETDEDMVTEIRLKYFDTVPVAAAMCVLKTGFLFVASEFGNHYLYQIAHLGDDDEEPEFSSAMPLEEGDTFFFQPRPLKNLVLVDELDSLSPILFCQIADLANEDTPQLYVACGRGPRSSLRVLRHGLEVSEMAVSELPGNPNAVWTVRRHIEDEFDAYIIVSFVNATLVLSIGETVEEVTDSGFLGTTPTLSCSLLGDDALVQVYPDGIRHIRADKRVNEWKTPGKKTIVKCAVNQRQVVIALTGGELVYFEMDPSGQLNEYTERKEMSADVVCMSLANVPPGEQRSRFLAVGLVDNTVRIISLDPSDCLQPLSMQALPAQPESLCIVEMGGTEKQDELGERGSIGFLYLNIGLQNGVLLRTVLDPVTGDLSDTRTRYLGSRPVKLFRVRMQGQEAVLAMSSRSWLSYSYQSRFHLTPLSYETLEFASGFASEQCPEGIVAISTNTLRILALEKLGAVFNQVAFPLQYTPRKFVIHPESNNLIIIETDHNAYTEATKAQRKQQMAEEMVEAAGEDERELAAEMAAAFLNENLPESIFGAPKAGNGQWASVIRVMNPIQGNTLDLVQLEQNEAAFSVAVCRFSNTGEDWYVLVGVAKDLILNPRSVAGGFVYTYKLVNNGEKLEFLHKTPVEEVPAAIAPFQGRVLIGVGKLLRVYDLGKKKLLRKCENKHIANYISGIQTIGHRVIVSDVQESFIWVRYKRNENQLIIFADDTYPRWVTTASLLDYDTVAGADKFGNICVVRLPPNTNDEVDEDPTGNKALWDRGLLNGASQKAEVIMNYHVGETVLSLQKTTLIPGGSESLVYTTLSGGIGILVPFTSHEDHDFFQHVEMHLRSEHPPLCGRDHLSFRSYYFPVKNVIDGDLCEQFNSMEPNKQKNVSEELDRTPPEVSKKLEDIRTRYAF
UniProt P62318: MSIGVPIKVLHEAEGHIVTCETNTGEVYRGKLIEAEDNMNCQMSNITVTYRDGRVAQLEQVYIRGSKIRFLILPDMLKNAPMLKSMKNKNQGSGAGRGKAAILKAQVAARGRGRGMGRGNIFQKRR
UniProt Q99459: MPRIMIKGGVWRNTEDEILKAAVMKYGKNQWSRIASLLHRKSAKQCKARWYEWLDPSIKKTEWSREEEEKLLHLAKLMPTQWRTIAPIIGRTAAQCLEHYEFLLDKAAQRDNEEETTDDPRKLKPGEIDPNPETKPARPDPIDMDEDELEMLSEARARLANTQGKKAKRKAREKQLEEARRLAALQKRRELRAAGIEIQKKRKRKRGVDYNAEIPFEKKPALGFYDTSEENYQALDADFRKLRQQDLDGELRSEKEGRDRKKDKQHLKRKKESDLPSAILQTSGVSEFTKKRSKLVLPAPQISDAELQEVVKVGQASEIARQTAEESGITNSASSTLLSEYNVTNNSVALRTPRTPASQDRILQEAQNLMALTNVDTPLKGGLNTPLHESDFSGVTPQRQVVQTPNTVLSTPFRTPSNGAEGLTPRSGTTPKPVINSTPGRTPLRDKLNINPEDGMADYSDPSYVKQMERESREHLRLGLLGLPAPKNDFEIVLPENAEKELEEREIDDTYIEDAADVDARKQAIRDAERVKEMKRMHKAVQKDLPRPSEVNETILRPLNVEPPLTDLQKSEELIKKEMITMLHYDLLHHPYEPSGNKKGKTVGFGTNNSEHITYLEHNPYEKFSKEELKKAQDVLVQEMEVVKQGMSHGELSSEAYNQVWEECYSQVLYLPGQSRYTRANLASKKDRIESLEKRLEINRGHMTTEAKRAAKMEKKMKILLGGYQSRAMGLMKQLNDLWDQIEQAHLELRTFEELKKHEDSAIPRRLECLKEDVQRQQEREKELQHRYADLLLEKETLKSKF
UniProt O75643: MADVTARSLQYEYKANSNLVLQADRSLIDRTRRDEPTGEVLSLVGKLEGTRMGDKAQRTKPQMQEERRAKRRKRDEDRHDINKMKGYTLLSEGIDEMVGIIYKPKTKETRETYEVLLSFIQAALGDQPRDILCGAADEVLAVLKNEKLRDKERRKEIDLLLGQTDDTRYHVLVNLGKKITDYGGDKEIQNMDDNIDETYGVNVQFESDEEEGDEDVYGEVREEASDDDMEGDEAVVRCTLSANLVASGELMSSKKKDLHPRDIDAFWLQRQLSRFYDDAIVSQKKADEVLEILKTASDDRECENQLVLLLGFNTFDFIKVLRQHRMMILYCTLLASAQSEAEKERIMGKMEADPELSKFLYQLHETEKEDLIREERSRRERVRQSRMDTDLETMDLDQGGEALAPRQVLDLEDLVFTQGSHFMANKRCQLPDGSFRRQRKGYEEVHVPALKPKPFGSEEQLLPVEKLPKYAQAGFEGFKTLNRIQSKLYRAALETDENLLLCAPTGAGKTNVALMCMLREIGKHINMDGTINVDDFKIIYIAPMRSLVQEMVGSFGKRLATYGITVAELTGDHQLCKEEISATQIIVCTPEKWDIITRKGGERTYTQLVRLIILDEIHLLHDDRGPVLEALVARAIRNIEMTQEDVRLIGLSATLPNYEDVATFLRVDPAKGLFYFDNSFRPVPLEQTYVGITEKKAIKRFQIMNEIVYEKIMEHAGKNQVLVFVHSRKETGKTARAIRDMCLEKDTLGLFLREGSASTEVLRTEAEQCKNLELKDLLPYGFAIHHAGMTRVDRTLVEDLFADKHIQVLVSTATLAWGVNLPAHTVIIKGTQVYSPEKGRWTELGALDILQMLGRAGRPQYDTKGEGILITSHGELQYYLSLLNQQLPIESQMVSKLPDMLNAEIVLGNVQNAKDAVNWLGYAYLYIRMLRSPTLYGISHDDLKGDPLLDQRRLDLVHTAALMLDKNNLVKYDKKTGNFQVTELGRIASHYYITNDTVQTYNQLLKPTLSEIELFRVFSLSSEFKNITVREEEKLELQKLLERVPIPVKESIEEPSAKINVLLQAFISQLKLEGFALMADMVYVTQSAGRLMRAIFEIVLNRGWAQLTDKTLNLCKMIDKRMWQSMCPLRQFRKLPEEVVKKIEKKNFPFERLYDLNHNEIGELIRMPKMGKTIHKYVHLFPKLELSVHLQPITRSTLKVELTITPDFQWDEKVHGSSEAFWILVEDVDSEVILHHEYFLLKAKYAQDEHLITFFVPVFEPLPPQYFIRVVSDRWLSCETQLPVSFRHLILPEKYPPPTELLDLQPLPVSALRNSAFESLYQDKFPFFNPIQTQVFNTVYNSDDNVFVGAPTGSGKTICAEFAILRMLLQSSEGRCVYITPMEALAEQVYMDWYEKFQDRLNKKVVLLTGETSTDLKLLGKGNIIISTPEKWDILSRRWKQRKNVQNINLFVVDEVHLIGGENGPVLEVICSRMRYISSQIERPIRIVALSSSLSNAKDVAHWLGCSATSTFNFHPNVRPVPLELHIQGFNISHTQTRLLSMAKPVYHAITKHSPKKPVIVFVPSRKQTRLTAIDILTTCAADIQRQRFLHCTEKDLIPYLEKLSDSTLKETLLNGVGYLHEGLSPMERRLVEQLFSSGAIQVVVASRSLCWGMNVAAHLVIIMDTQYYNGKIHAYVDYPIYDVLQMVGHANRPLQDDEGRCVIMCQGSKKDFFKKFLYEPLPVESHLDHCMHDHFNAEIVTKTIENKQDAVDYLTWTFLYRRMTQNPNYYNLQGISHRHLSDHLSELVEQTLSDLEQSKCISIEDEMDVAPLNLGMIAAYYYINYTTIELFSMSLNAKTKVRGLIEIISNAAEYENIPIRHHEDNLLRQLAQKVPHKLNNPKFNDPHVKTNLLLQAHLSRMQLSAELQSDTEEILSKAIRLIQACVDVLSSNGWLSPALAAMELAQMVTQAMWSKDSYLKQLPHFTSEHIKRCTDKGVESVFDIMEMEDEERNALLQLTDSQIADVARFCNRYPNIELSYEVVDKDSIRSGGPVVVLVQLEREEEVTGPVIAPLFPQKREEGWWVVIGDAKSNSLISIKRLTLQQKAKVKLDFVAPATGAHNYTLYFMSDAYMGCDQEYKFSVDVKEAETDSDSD
UniProt Q13547: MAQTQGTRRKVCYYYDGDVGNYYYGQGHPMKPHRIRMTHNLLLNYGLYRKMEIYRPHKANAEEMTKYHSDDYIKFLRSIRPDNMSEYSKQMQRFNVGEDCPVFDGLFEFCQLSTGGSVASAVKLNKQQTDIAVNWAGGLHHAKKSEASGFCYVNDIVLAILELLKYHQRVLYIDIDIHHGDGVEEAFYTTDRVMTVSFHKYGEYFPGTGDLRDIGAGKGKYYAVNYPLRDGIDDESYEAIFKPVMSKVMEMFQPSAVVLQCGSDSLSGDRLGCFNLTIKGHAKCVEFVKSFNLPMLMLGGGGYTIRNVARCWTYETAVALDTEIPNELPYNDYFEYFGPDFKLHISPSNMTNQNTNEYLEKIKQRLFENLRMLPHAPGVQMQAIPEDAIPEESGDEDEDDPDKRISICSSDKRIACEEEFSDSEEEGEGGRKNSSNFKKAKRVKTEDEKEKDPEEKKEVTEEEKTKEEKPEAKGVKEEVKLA
UniProt P62304: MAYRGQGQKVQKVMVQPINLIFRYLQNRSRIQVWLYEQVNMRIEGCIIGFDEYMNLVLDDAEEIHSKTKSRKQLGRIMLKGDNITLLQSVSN
UniProt P62308: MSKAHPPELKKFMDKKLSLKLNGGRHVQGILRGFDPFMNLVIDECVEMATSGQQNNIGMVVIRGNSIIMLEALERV
UniProt P62316: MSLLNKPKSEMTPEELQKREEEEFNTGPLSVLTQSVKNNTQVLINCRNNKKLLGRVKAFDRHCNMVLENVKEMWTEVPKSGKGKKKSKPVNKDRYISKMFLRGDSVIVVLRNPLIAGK
UniProt O43143: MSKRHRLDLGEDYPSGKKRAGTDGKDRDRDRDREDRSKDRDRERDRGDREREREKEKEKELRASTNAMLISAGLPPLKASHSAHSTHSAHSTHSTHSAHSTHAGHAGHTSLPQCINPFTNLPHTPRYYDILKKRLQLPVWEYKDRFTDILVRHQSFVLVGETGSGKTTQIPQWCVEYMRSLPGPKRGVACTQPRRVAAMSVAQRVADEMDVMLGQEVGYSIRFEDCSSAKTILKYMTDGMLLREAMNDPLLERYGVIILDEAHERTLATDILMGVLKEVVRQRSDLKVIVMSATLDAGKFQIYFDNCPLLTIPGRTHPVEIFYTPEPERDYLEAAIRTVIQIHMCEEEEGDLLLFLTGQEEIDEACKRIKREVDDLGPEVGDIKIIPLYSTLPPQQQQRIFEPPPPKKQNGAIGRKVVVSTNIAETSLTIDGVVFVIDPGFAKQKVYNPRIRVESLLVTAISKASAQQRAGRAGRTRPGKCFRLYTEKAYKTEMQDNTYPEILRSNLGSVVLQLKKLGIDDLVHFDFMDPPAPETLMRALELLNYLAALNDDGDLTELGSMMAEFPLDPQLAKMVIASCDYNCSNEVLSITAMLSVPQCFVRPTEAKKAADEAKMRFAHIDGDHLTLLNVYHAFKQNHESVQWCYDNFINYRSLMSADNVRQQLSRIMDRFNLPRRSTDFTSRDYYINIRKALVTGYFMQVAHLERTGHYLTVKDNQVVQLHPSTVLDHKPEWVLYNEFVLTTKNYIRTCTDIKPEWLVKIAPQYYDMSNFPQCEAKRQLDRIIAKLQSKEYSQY

B1: CWC27 (protein, UniProt Q6UX04 1-472)
chain: MSNIYIQEPPTNGKVLLKTTAGDIDIELWSKEAPKACRNFIQLCLEAYYDNTIFHRVVPGFIVQGGDPTGTGSGGESIYGAPFKDEFHSRLRFNRRGLVAMANAGSHDNGSQFFFTLGRADELNNKHTIFGKVTGDTVYNMLRLSEVDIDDDERPHNPHKIKSCEVLFNPFDDIIPREIKRLKKEKPEEEVKKLKPKGTKNFSLLSFGEEAEEEEEEVNRVSQSMKGKSKSSHDLLKDDPHLSSVPVVESEKGDAPDLVDDGEDESAEHDEYIDGDEKNLMRERIAKKLKKDTSANVKSAGEGEVEKKSVSRSEELRKEARQLKRELLAAKQKKVENAAKQAEKRSEEEEAPPDGAVAEYRREKQKYEALRKQQSKKGTSREDQTLALLNQFKSKLTQAIAETPENDIPETEVEDDEGWMSHVLQFEDKSRKVKDASMQDSDTFEIYDPRNPVNKRRREESKKLMREKKERR
B2: PLRG1 (protein, UniProt O43660 1-514)
chain: MVEEVQKHSVHTLVFRSLKRTHDMFVADNGKPVPLDEESHKRKMAIKLRNEYGPVLHMPTSKENLKEKGPQNATDSYVHKQYPANQGQEVEYFVAGTHPYPPGPGVALTADTKIQRMPSESAAQSLAVALPLQTKADANRTAPSGSEYRHPGASDRPQPTAMNSIVMETGNTKNSALMAKKAPTMPKPQWHPPWKLYRVISGHLGWVRCIAVEPGNQWFVTGSADRTIKIWDLASGKLKLSLTGHISTVRGVIVSTRSPYLFSCGEDKQVKCWDLEYNKVIRHYHGHLSAVYGLDLHPTIDVLVTCSRDSTARIWDVRTKASVHTLSGHTNAVATVRCQAAEPQIITGSHDTTIRLWDLVAGKTRVTLTNHKKSVRAVVLHPRHYTFASGSPDNIKQWKFPDGSFIQNLSGHNAIINTLTVNSDGVLVSGADNGTMHLWDWRTGYNFQRVHAAVQPGSLDSESGIFACAFDQSESRLLTAEADKTIKVYREDDTATEETHPVSWKPEIIKRKRF

What follows are molecules tested against HA-tagged TFAP2C (UniProt Q92754) (assay: affinity purification with mass spectrometry; anti-HA immunoprecipitation of HA-TFAP2C from benzonase-released chromatin-bound fractions of HCT116-Tet-On-shUBA2 cells, without and with Dox (UBA2 knockdown); untransfected cells as control; binding buffer with 0.25 M NaCl and 0.5% Triton X-100, 4°C; gel bands analysed by LC-MS/MS).

Q: Which binding does the source give for SF3B3 (from UniProt Q15393 1-1217) here?
A: The binding was “binds”.

Q: For “HDAC2 (from UniProt Q92769 1-488) (enzyme)”, which binding is on record?
A: Its binding is “binds”.

Q: With SNRPD3 (from UniProt P62318 1-126) as the molecule, how does the binding read?
A: Its binding is “binds”.

Q: CDC5L (from UniProt Q99459 1-802) was tested. Which binding did it give?
A: The binding was “binds”.

Q: With SNRNP200 (from UniProt O75643 1-2136) as the molecule, how does the binding read?
A: Its binding is “binds”.

Q: For “HDAC1 (from UniProt Q13547 1-482) (enzyme)”, which binding is on record?
A: Its binding is “binds”.

Q: Which binding does the source give for SNRPE (from UniProt P62304 1-92) here?
A: Its binding is “binds”.

Q: How did the binding turn out when DDX23 (from UniProt Q9BUQ8 1-820) was run?
A: Its binding is “binds”.

Q: SNRPG (from UniProt P62308 1-76) was tested. Which binding did it give?
A: Its binding is “binds”.

Q: For SF3B1 (from UniProt O75533 1-1304), which binding is on record?
A: The binding was “binds”.

Q: How did the binding turn out when SNRPD2 (from UniProt P62316 1-118) was run?
A: Its binding is “binds”.

Q: For DHX15 (from UniProt O43143 1-795), which binding is on record?
A: Its binding is “binds”.

Q: Which binding does the source give for B1 here?
A: Its binding is “binds”.

Q: B2 was tested. Which binding did it give?
A: Its binding is “binds”.

Results are given in words; binding and its absence hold for the method and conditions named. Binding seen in cells or lysates may run through a third protein. A yes stands for co-enrichment or nearness to the bait. Other partners may have been found.
